In this assay the target is TbPH1-BioID2-HA (Trypanosoma brucei) (UniProt Q582W2). The experiment in a line: proximity labelling.

These are yes or no findings as the source states them, for the method shown. In cells and extracts the contact can be indirect. Here binding means that the protein was enriched with, or labelled near, the bait; the list need not be complete.

For the substance FP45 (from UniProt Q38E24), the binding entry is “binds”.

Take TbKifX2A (from UniProt Q38CW6): the binding entry is “binds”.

TbKifX2C (from UniProt Q583P6): the binding result is reported as “binds”.

These data come from doi:10.1101/2021.09.29.462327.
